PubChem BioAssay AID602196 – INSERM | 2012
The whole screen tested about 23,000 reagents; below is a part drawn at random. In the full data, 455 (2%) are marked active. 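Active includes both protection and sensitisation; some change values fall well beyond the stated -50 to +50 range.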 The record does not give: the amount of reagent.

- Assay: 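Knock-downs that protect lung cancer cells from cisplatin or sensitise them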
- System: human A549 lung cancer cells
- Reagent: siRNA pair against human genes
- Time to read-out: 48 h transfection before cisplatin; time from cisplatin to read-out not stated
- Challenge: cisplatin at a dose killing half of control-siRNA cells; exact dose and duration not given
- Measured: 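Cisplatin cell death as a shift from the 50% death seen with control siRNA; siRNAs toxic or growth-blocking alone scored 0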
- Direction: two-siRNA summed score (-2 to +2): higher = both siRNAs protect from cisplatin killing; -2 means both sensitise; mean protection from cisplatin (shift in death) and protection from cisplatin (shift in death), siRNA C and protection from cisplatin (shift in death), siRNA D: higher = protection from cisplatin killing
- Hit rule: 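siRNAs harmful alone (LDH or WST-1) get 0; others get +1 for less and -1 for more cisplatin killing; genes are active when the two siRNAs give the same sign, summing to ±2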
- Meaning of the calls: active = both siRNAs shift cisplatin killing the same way; inactive = no consistent shift, or siRNA harmful alone

| target | two-siRNA summed score (-2 to +2) | mean protection from cisplatin (shift in death) (%) | protection from cisplatin (shift in death), siRNA C (%) | protection from cisplatin (shift in death), siRNA D (%) | Call |
| --- | --- | --- | --- | --- | --- |
| DEXI | 0 | 7.5 | 9.5 | 5.6 | inactive |
| IL18BP | 0 | 7.3 | 18.5 | -3.9 | inactive |
| EIF2AK3 | 1 | 12 | 14.7 | 9.3 | inactive |
| TMEM116 | 0 | 6.6 | 8.7 | 4.4 | inactive |
| LRIG1 | -1 | -2.3 | -17.3 | 12.7 | inactive |
| IDH3B | 0 | 13.9 | 8.7 | 19 | inactive |
| IRF2 | 1 | 30.1 | 26.2 | 34 | inactive |
| CLVS2 | 0 | -6.1 | -16.2 | 4 | inactive |
| PRKACB | 0 | 4.9 | -3.5 | 13.2 | inactive |
| NUCKS1 | 1 | 6.3 | 12.6 | -0.1 | inactive |
| OR3A4P | 0 | 13.8 | 10.8 | 16.7 | inactive |
| H1-7 | 0 | 16.1 | 39.1 | -7 | inactive |
| LOC442374 | 1 | 14.6 | 7.7 | 21.6 | inactive |
| C20orf173 | 0 | 19.3 | 25 | 13.5 | inactive |
| FDX1 | 1 | 12.2 | -0.9 | 25.3 | inactive |
| TFCP2L1 | 0 | 3 | -2.4 | 8.4 | inactive |
| ILRUN | 0 | 19.3 | 14.1 | 24.5 | inactive |
| LOC389725 | 1 | 13.6 | 2.7 | 24.6 | inactive |
| NT5C1B | 0 | 0.7 | 2.9 | -1.5 | inactive |
| DKFZp434E1410 | 1 | 17.2 | 8.8 | 25.5 | inactive |
| LOC340578 | -1 | -12.1 | -14.6 | -9.7 | inactive |
| LOC401583 | 0 | 11.1 | 6.9 | 15.3 | inactive |
| PLA2G5 | 0 | 6.3 | 0.8 | 11.8 | inactive |
| MDK | 0 | -0.2 | -9.5 | 9 | inactive |
| LGALSL | 0 | 2.8 | 1.4 | 4.1 | inactive |
| SLC2A6 | 0 | 4.7 | -2.5 | 12 | inactive |
| E2F6 | 0 | 1 | -6.3 | 8.4 | inactive |
| RHOXF2 | 0 | 19.3 | 14.9 | 23.6 | inactive |
| GOLM2 | 0 | 0.1 | -1.6 | 1.9 | inactive |
| LGSN | 0 | 8.1 | 10.9 | 5.4 | inactive |
| COL4A2 | 1 | 17.8 | 30.3 | 5.3 | inactive |
| PKIA | 0 | 10.6 | 20.9 | 0.2 | inactive |
| LOC442654 | 0 | 11.6 | 6.7 | 16.5 | inactive |
| SP1 | 0 | 2.4 | -7 | 11.7 | inactive |
| LINC00299 | 1 | 8.7 | 18.9 | -1.6 | inactive |
| FPGT | 0 | 0.5 | 7.6 | -6.5 | inactive |
| LOC441817 | 1 | 9.8 | 9.7 | 10 | inactive |
| CERS2 | 1 | 7.5 | -1.1 | 16.1 | inactive |
| NECTIN3 | -1 | -26.7 | -21.6 | -31.7 | inactive |
| LOC340843 | 0 | 1.1 | 5.1 | -2.9 | inactive |
| LOC442092 | 0 | 4.5 | -7.9 | 16.9 | inactive |
| TMEM127 | 0 | 9 | 2.8 | 15.2 | inactive |
| HELZ | 0 | 5.3 | 5 | 5.5 | inactive |
| PLA2R1 | -1 | -18.8 | -37.5 | -0.1 | inactive |
| TAFA3 | 0 | 14.5 | 1.5 | 27.5 | inactive |
| LOC442441 | 0 | 0.9 | 8.6 | -6.8 | inactive |
| MSX2P1 | 0 | 20.1 | 14.4 | 25.7 | inactive |
| HGD | -1 | -24.1 | -35.6 | -12.5 | inactive |
| DMAC2 | 0 | -2.9 | -3 | -2.8 | inactive |
| PXDN | 0 | -14.2 | -29.8 | 1.4 | inactive |
| COLEC11 | 0 | 4.9 | 4.6 | 5.2 | inactive |
| OPLAH | 0 | -7.8 | -4.9 | -10.7 | inactive |
| PPP1R13B-DT | 0 | 4.9 | 12 | -2.2 | inactive |
| LOC391403 | 1 | 11.5 | 7.7 | 15.4 | inactive |
| INPP5A | 0 | 13.8 | 35.4 | -7.7 | inactive |
| HNF1A | -1 | -11.4 | -25 | 2.2 | inactive |
| LOC388528 | 0 | 1.9 | 1.8 | 2 | inactive |

Part of the list above in another layout:
LOC340578 | two-siRNA summed score (-2 to +2): -1; mean protection from cisplatin (shift in death) (%): -12.1; protection from cisplatin (shift in death), siRNA C (%): -14.6; protection from cisplatin (shift in death), siRNA D (%): -9.7; Call: inactive
LOC401583 | two-siRNA summed score (-2 to +2): 0; mean protection from cisplatin (shift in death) (%): 11.1; protection from cisplatin (shift in death), siRNA C (%): 6.9; protection from cisplatin (shift in death), siRNA D (%): 15.3; Call: inactive
PLA2G5 | two-siRNA summed score (-2 to +2): 0; mean protection from cisplatin (shift in death) (%): 6.3; protection from cisplatin (shift in death), siRNA C (%): 0.8; protection from cisplatin (shift in death), siRNA D (%): 11.8; Call: inactive
